Binding data for one substance are collected here from paper PMC6201366.

Protein sequences, listed by entry. Tags and fused reporters are not part of them. Lines headed by an entry give the natural chain unless they say otherwise; changes in a name come on top.
UniProt Q5VZ66: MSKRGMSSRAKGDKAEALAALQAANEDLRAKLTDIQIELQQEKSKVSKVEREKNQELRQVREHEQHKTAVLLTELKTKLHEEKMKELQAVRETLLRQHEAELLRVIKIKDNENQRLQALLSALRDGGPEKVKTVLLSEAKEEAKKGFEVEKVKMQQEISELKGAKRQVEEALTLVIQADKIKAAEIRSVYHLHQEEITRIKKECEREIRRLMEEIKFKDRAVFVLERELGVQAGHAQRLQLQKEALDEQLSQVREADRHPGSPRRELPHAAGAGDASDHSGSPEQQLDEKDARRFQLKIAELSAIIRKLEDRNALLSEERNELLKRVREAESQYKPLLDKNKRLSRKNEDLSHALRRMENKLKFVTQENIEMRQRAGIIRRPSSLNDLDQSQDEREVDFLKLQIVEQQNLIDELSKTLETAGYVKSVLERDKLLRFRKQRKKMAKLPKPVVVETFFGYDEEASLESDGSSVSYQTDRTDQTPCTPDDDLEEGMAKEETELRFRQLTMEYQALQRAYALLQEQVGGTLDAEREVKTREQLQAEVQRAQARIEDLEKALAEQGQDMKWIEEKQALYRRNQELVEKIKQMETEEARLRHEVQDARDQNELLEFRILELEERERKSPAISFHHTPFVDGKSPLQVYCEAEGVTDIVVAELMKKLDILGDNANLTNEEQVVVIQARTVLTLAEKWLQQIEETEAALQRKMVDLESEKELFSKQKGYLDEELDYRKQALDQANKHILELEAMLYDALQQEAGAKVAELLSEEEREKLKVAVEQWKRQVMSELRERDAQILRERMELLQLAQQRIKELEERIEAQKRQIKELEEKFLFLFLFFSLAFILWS

The assay has as its target T1, caveolin-1 (CAV1), CFP-tagged (UniProt P41350).
T1 sequence: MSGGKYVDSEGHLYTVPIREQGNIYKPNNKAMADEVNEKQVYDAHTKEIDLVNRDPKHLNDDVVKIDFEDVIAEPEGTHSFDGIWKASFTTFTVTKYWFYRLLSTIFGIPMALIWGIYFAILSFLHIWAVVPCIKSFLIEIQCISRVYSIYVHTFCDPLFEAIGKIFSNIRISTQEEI
Put plainly: co-IP; HEK-293 AD cells co-transfected with c-Myc-Necc2 and CFP-Cav1; lysates and immunoprecipitates blotted with anti-cMyc and anti-GFP; precipitating antibody not stated.

These are yes or no findings as the source states them, for the method shown. Binding seen in cells or lysates may run through a third protein. Binding can be weak; no strength is given. Tags and fused reporters may be left off the sequences shown.

On to “neuroendocrine long coiled-coil protein-2 (NECC2), c-Myc-tagged (from UniProt Q5VZ66)”, for which the binding result is “binds”.
